{"source": "patent US20190070208A1", "about": "“USE OF TRIACETYL-3-HYDROXYPHENYLADENOSINE IN PREPARING PHARMACEUTICALS FOR TREATMENT OF ATHEROSCLEROSIS” (priority 2016, published 2019)", "assay_type_in_all_cases": "in vivo", "key": {"[1]": {"system": "circulating blood inflammatory mononuclear cells (Ly6C^hi)", "assay": "Circulating blood inflammatory (Ly6Chi) mononuclear cells of high-fat-fed apoE-/- mice (flow cytometry)", "settings": "compared with the model group, result in words", "protocol": "(§1) ApoE-/-mice (C57BL background), 5-7 weeks old, body weight 18-22 g, male, SPF grade; Purchased from Beijing institute of Laboratory Animal Science.\n(§2) After 7 days of adaptive feeding, animals were randomly divided into a high-fat feedstuff group (n=7), an MMH007 low-dose group (50 mg/kg, n=7), an IMMH007 medium-dose group (100 mg/kg, n=7), and an IMMH007 high-dose group (200 mg/kg, n=9), and they were administered once a day by gavage. The animals were fed in the Second Department of Animal Experiment Center of the Institute of Materia Medica (IMM) at Chinese Academy of Medical Sciences (CAMS); the feeding condition was SPF grade, the temperature was 21±2 DEG C, relative humidity was 50±5%, lighting cycle was 12/12, and 5 per cage. All groups were given high-fat diet (70% of basal diet plus 20% of lard and 0.2% of cholesterol) and the animals were free to take food and drink. The feedstuff was produced by Beijing HFK Bioscience Co., Ltd. Body weight was recorded once every week during the experiment.\n(§3) The animals were fasted for 12 hours and the following cells were extracted:\n(§4) Recirculating blood cells: 50 ul of blood was taken by cardiocentesis, placed in 450 ul of heparin anticoagulant, 1 ml of red blood cell lysis buffer was added, lysed for 10 minutes, centrifuged at 1800 r for 3 min, the supernatant was aspirated, and 100 ul of PBS suspension cells were obtained for subsequent use. […]"}, "[2]": {"system": "MCP-1", "assay": "Serum inflammatory factor MCP-1 level in apoE-/- mice", "settings": "apoE-/- mice suffering from atherosclerosis; result in words"}, "[3]": {"system": "inflammatory Ly6C^hi mononuclear cells in the arterial plaques", "assay": "Ly6Chi mononuclear cells in aortic full length arterial plaque of apoE-/- mice (flow cytometry)", "settings": "apoE-/- mice suffering from atherosclerosis; result in words"}, "[4]": {"system": "IL-6", "assay": "Serum inflammatory factor IL-6 level in apoE-/- mice", "settings": "apoE-/- mice suffering from atherosclerosis; result in words"}, "[5]": {"system": "circulating blood mononuclear cells", "assay": "Circulating blood mononuclear cells of high-fat-fed Syrian golden hamsters (whole blood cell analyzer)", "settings": "compared with the model group; Syrian golden hamsters fed with high-fat diet; result in words", "protocol": "[…] Syrian golden hamsters (LVG hamsters, introduced from Charles River Laboratories) aged 6-8 weeks, weighing 90-120 g, male, SPF grade and purchased from Beijing Vital River Laboratory Animal Technology Co., Ltd.\nAfter 7 days of adaptive feeding, animals were randomly divided into a normal control group (n=13), a high-fat feedstuff group (n=13), an IMMH007 low-dose group (50 mg/kg, n=13), an IMMH007 medium-dose group (100 mg/kg, n=13), and an IMMH007 high-dose group (200 mg/kg, n=13), and they were administered twice a day by gavage. The animals were fed in the Second Department of Animal Experiment Center of the Institute of Materia Medica (IMM) at Chinese Academy of Medical Sciences (CAMS); the feeding condition was SPF grade, the temperature was 21±2 DEG C, relative humidity was 50±5%, lighting cycle was 12/12, and 5 per cage. The normal group was fed with normal basal feedstuff, and the high-fat feedstuff group was fed with high fat feedstuff (79.8% of basal feedstuff, 20% of lard, and 0.2% of cholesterol), and the animals were free to take food and drink. […]\nThe animals were fasted for 12 hours, and about 200 ul of blood was taken from the canthus of each eye, the blood was dissolved in 30ul of EDTA-2K anticoagulant (20g/L, prepared with normal saline), mixed slightly to avoid coagulation, and the whole blood cells were analyzed by a whole blood cell analyzer."}, "[6]": {"system": "arterial plaque", "assay": "Aortic root and aortic full-length plaque area (oil red O staining) in apoE-/- mice", "settings": "result in words"}, "[7]": {"system": "circulating blood mononuclear cells", "assay": "Circulating blood mononuclear cells of high-fat-fed apoE-/- mice (flow cytometry)", "settings": "compared with the model group, result in words", "protocol": "as §1, §2, §3, §4"}}, "note": "Entries after “also recorded” stand apart in the source; their conditions may differ. For at least one compound, name, drawing or mass did not settle the structure.", "data": [{"molecule": "CC(=O)OCC1OC(n2cnc3c(Nc4cccc(O)c4)ncnc32)C(OC(C)=O)C1OC(C)=O", "note": "(centres unmarked) [IMM-H007, Triacetyl-3-Hydroxyphenyladenosine]", "values": [{"measurement": "number of inflammatory mononuclear cells (peripheral blood Ly6C^hi)", "setting": "[1]", "value": "reduced; also recorded: significantly reduce"}, {"measurement": "MCP-1 level in serum", "setting": "[2]", "value": "significantly reduce"}, {"measurement": "number of inflammatory Ly6C^hi mononuclear cells in the arterial plaques", "setting": "[3]", "value": "significantly reduce"}, {"measurement": "IL-6 level in serum", "setting": "[4]", "value": "significantly reduce"}, {"measurement": "number of mononuclear cells in the circulating blood", "setting": "[5]", "value": "significantly reduce"}, {"measurement": "arterial plaque area of the aortic full length", "setting": "[6]", "value": "significantly reduce"}, {"measurement": "arterial plaque area of the aortic root", "setting": "[6]", "value": "significantly reduce"}, {"measurement": "number of the circulating mononuclear cells", "setting": "[7]", "value": "significantly reduce"}]}]}
